No constants are given. Whether binding was seen depends on the method and setting. Binding seen in cells or lysates may run through a third protein. Binding calls can cover weak binding; strength is not graded here. Where a sequence is shown, tags or fusion partners need not be part of it.
Target: FLAG-tagged vIRF3 (pCEBZ-vIRF3-SF) (Kaposi's sarcoma-associated herpesvirus)
Test: co-IP; HEK293T cells cotransfected with FLAG-tagged vIRF3 and CBD-tagged IRF4; lysis buffer 50 mM Tris, 150 mM NaCl, 5 mM EDTA, 0.2% NP-40, pH 7.4; cleared extracts incubated overnight at 4°C with anti-FLAG M2 magnetic beads or chitin resin beads; immunoblot with anti-FLAG and anti-CBD

B1: chitin-binding domain (CBD)-tagged IRF4 (pCEBZ-IRF4-CBD) (protein, UniProt Q15306 1-451)
chain: MNLEGGGRGGEFGMSAVSCGNGKLRQWLIDQIDSGKYPGLVWENEEKSIFRIPWKHAGKQDYNREEDAALFKAWALFKGKFREGIDKPDPPTWKTRLRCALNKSNDFEELVERSQLDISDPYKVYRIVPEGAKKGAKQLTLEDPQMSMSHPYTMTTPYPSLPAQQVHNYMMPPLDRSWRDYVPDQPHPEIPYQCPMTFGPRGHHWQGPACENGCQVTGTFYACAPPESQAPGVPTEPSIRSAEALAFSDCRLHICLYYREILVKELTTSSPEGCRISHGHTYDASNLDQVLFPYPEDNGQRKNIEKLLSHLERGVVLWMAPDGLYAKRLCQSRIYWDGPLALCNDRPNKLERDQTCKLFDTQQFLSELQAFAHHGRSLPRFQVTLCFGEEFPDPQRQRKLITAHVEPLLARQLYYFAQQNSGHFLRGYDLPEHISNPEDYHRSIRHSSIQE
- binding: binds

From article PMC7448273
